{"sequences": {"note": "By UniProt entry, the sequences of proteins in these tests, tags left out. Where a name states a change or a piece, a line headed by the entry shows the natural chain unless it says otherwise.", "UniProt P19793": "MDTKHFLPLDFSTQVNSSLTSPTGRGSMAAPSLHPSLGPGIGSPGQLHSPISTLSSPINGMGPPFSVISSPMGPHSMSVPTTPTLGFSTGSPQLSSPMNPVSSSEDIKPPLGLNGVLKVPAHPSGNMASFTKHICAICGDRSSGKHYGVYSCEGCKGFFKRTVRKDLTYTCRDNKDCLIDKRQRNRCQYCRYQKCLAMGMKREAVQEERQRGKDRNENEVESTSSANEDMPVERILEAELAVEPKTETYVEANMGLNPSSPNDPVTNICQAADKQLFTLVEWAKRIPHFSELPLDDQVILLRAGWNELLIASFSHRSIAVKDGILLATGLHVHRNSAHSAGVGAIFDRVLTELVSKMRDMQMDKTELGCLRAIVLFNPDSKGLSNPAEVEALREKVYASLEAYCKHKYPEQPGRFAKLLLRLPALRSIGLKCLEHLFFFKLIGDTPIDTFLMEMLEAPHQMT"}, "source": "PubChem BioAssay (Tox21)", "note": "Where “and” joins values, the source holds several entries; their conditions need not be identical. Identical values can stand only once. The shares of active, inactive and inconclusive entries below differ from those in the screen. Potencies of inconclusive entries are doubtful fits and often do not repeat. Some compounds were tested as several samples or in several runs, with calls that do not always agree. Calls of active or inactive are those of the source. The call rests on the fitted dose curve. On the % scale 0 is the no-effect control and ±100 the full control effect; potency means the concentration at half of the fitted maximal effect."}
{"biological_target": "Retinoic acid receptor RXR-alpha (Homo sapiens) (UniProt P19793)", "assay": "qHTS assay to identify small molecule agonists of the RXR signaling pathway (AID 1159527); further: nearly all actives have a fitted effect of over 35% in size", "conditions": "HEK293T RXRa-UAS-bla, beta-lactamase ratio, 16 h; activation: at 76.8 µM (top of the series) unless noted", "procedure,_shortened": "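Read-out: beta-lactamase FRET ratio (405 nm excitation, 460 and 530 nm emission) after 2 hr substrate loading at room temperature. Cells were RXR-alpha-UAS-bla HEK 293T treated with compounds for 16 hr in 2% charcoal-stripped FBS medium.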"}
{"smiles": "CCCCC(CC)COC(C)=O", "note": "(centres undefined)", "Potency": "inactive"}
{"smiles": "CC1(C)OC[C@@H]2O[C@@]3(C(=O)O)OC(C)(C)O[C@H]3[C@@H]2O1", "Potency": "active: 21.9 µM"}
{"smiles": "CCCCN1C(=O)[C@@H]([C@H](O)C2CCCCC2)NC(=O)C12CCN(Cc1ccc(Oc3ccc(C(=O)O)cc3)cc1)CC2", "Potency": "inconclusive: 9.77 µM [fluorescent, full curve]"}
{"smiles": "O=C(O)CCCCC1CCSS1", "note": "(centres undefined)", "activation": "inconclusive: 20.9%"}
{"smiles": "Cc1c(-c2cccnc2)c2ccccc2n1CCCCC(=O)O", "Potency": "inconclusive: 49 µM [fluorescent]"}
{"smiles": "ClC1=C(Cl)C1(Cl)Cl", "activation": "inactive: -8.85%"}
{"smiles": "CCc1ccccc1", "Potency": "inconclusive: 22.1 µM [activator, full curve, poor fit]"}
{"smiles": "CCCCOc1ccc(C(=O)CCN2CCCCC2)cc1", "Potency": "inconclusive: 6.01 µM"}
{"smiles": "C[C@]12CC[C@H]3[C@@H](CCC4=CC(=O)CC[C@@]43C)[C@@H]1CC[C@@H]2C(=O)CO", "Potency": "inconclusive: 34.7 µM [fluorescent, partial curve] and inconclusive: 21.3 µM"}
{"smiles": "Cc1ccccc1Cl", "Potency": "inactive"}
{"smiles": "COc1ccccc1Oc1c(NS(=O)(=O)c2ccc(C(C)(C)C)cc2)nc(-c2ncccn2)nc1OCCO", "activation": "inconclusive: -29.1% [at 35.3 µM]"}
{"smiles": "CCN(CC)C(=O)N1CCN(C)CC1", "activation": "inactive: -3.08% [at 35.3 µM]"}
{"smiles": "c1cc(-c2ccncc2)ccn1", "Potency": "inactive and inconclusive: 24.5 µM [activator]"}
{"smiles": "CO[C@@]1(NC(=O)C(C(=O)O)c2ccc(O)cc2)C(=O)N2C(C(=O)O)=C(CSc3nnnn3C)CO[C@@H]21", "note": "(some centres undefined)", "activation": "inactive: -5.03% [at 35.3 µM]"}
